The target in this series is T1, BmKRP (endogenous) (Bombyx mori (BmN cells)) (UniProt A0A8R1WHU4).
T1 sequence (looked up): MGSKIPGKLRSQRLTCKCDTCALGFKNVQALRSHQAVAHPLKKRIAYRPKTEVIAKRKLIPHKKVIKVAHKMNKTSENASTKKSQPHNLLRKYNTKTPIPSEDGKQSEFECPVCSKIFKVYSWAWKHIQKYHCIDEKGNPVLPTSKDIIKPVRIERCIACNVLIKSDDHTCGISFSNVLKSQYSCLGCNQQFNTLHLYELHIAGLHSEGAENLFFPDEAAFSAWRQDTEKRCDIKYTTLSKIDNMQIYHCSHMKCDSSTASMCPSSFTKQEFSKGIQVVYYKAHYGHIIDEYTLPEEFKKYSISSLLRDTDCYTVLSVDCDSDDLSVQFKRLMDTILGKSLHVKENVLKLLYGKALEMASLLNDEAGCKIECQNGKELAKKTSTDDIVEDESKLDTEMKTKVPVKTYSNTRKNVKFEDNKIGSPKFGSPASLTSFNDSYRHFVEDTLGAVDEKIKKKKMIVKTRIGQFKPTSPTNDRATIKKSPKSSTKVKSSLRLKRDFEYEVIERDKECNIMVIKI
Nature of the series: pull-down. The conditions noted are these: pull-down: 10 mM HEPES pH 7.6, 100 mM K-glutamate, 80 mM KCl, 10 mM Mg acetate, 4 C, protein in an extract, residues 1-518, label: biotin.

Results from cells or extracts need not show a direct contact. No signal at the amounts used counts as a negative. At least one verdict was read from the data and is not stated in words by the source. Tags and fusion partners may be left off the protein sequences shown. The exact form of at least one protein or probe is not confirmed.

Regarding “TTATTAAAACATCCGAAAACGCAATAATCATT (double strand) [pull-down WT CRE probe]”, the binding result (LC-MS/MS identification) is “binds”. As to “GGCGGCCCACATCCGAAAACGACCGCCGACGG (double strand) [pull-down mutant CRE probe]”, the binding result (band absent with mutant probe) is recorded as “no binding”.

Values taken from PMC7905918, “20E-mediated regulation of BmKr-h1 by BmKRP promotes oocyte maturation”.
